Test results reported in paper PMC7551373.
Results are given in words; binding and its absence hold for the method and conditions named. Binding seen in cells or lysates may run through a third protein. Some entries that bind do so weakly or less than the wild type.

Protein sequences, listed by entry. Tags and fused reporters are not part of them.
UniProt Q62318: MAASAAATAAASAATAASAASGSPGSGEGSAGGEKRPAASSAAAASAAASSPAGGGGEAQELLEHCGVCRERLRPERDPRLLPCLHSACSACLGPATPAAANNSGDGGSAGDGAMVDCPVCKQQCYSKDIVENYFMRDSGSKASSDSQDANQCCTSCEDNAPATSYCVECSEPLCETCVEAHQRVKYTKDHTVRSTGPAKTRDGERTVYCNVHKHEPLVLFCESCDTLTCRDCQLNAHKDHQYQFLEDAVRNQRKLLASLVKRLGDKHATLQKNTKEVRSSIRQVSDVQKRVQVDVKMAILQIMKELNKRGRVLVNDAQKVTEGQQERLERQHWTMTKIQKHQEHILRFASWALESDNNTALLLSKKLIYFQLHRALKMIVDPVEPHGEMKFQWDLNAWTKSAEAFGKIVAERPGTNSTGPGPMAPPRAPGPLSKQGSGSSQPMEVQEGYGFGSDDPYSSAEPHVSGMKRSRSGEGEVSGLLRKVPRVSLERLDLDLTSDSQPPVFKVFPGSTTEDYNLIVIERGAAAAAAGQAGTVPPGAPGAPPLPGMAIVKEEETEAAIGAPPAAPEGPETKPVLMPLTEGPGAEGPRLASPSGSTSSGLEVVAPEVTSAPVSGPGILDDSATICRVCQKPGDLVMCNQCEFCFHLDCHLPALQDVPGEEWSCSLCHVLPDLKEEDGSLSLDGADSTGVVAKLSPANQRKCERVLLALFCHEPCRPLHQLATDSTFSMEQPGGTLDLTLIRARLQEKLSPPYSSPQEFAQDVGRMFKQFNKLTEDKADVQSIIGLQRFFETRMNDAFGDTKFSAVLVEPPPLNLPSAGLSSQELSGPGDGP

Columns and labels:
[1] = biological target: T1, Trim24 (mouse (endogenous in R1 ESC)) (UniProt Q64127); test: co-IP; whole-cell extract of ESC (hypotonic lysis, then 0.5 M NaCl), diluted in IP wash buffer (20 mM Tris-HCl pH 7.5, 0.2 mM EDTA, 0.5 mM DTT, 0.2% Triton X-100, 150 mM NaCl); 4 ug anti-Trim28 or anti-Trim24 overnight at 4 °C, Dynabeads, Western blot; α-IgG as negative control; also control against Trim33 shRNA knock-down ESC (anti-Trim24 IP, band intensity Trim28/Trim24 by ImageJ, n = 3)
T1 sequence: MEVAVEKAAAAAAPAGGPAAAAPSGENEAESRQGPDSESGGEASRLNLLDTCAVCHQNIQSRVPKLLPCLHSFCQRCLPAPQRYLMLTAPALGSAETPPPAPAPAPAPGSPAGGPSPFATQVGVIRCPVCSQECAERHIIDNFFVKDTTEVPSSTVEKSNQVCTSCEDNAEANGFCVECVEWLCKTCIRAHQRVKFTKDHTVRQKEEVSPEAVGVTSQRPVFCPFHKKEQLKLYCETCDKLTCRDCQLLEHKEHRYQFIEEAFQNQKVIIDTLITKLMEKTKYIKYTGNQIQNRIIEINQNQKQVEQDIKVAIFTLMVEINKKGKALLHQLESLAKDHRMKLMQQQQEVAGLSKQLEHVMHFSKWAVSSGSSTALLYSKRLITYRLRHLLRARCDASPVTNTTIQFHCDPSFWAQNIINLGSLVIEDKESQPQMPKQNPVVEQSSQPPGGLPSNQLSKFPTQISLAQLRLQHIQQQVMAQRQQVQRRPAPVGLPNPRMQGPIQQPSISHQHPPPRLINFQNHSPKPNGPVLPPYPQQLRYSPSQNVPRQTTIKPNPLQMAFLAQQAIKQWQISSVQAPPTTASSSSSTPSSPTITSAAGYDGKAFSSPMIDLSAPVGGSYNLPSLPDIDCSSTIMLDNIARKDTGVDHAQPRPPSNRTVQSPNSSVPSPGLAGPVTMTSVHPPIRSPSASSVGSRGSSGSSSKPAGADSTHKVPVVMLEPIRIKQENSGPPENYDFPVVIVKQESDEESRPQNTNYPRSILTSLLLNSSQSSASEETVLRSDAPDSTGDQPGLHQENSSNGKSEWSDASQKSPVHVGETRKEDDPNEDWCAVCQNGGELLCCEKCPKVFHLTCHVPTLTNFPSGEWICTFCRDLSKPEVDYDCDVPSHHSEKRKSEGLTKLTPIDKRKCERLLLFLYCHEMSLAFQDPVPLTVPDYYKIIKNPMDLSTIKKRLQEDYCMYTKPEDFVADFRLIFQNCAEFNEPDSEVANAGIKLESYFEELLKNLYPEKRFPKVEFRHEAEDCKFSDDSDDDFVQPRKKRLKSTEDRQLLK

[2] = biological target: Trim28 (mouse (endogenous in R1 ESC)) (UniProt Q62318); test: as above

binding [1]: binds | binding [2]: binds
B1: Trim33 (protein, UniProt Q99PP7 1-1142)
chain: MAENKGGGEAESGGGGSGSAPVTAGAAGPTAQEAEPPLAAVLVEEEEEEGGRAGAEGGAAGPDDGGVAAASSSSAPAASVPAASVGSAVPGGAASTPAPAAAPAPAPAPAPAPAPAPAPAPAPGSSSGPPLGPPASLLDTCAVCQQSLQSRREAEPKLLPCLHSFCLRCLPEPERQLSVPIPGGSNGDVQQVGVIRCPVCRQECRQIDLVDNYFVKDTSEAPSSSDEKSEQVCTSCEDNASAVGFCVECGEWLCKTCIEAHQRVKFTKDHLIRKKEDVSESVGTSGQRPVFCPVHKQEQLKLFCETCDRLTCRDCQLLEHKEHRYQFLEEAFQNQKGAIENLLAKLLEKKNYVHFAATQVQNRIKEVNETNKRVEQEIKVAIFTLINEINKKGKSLLQQLENVTKERQMKLLQQQNDITGLSRQVKHVMNFTNWAIASGSSTALLYSKRLITFQLRHILKARCDPVPAANGAIRFHCDPTFWAKNVVNLGNLVIESKPAPGYTPNVVVGQVPPGTNHISKTPGQINLAQLRLQHMQQQVYAQKHQQLQQMRLQQPPAPIPTTTATTQQHPRQAAPQMLQQQPPRLISVQTMQRGNMNCGAFQAHQMRLAQNAARIPGIPRHSAPQYSMMQPHLQRQHSNPGHAGPFPVVSAHNPINPTSPTTATMANANRGPTSPSVTAIELIPSVTNPENLPSLPDIPPIQLEDAGSSSLDNLLSRYISGSHLPPQPTSTMNPSPGPSALSPGSSGLSNSHTPVRPPSTSSTGSRGSCGSSGRTAEKSAHSFKSDQVKVKQEPGTEEEICSFSGAVKQEKTEDGRRSACMLSSPESSLTPPLSTNLHLESELDTLTGLENHVKTEPTDISESCKQSGLSNLVNGKSPIRNLMHRSARIGGDGNSKDDDPNEDWCAVCQNGGDLLCCEKCPKVFHLTCHVPTLLSFPSGDWICTFCRDIGKPEVEYDCDNMQHSKKGKTAQGLSPVDQRKCERLLLYLYCHELSIEFQEPVPVSIPNYYKIIKKPMDLSTVKKKLQKKHSQHYQIPDDFVADVRLIFKNCERFNEMMKVVQVYADTQEINLKGDSEVAKAGKAVALYFEDKLSEIYSDRTFTPLPEFEQDEDDGEVTEDSDEDFIQPRRKRLKSDERPVHIK
